{"source": "patent US12187720B2", "about": "“Compounds for treatment of cancer” (ONCTERNAL THERAPEUTICS, INC., priority 2010, dated 2025)", "tested_on": "A375", "assay": "SRB cytotoxicity assay, A375 human melanoma cells", "format": "cell-based", "settings": "Table 14C; read-out: IC50 ± SEM A375 (converted)", "data": [{"smiles": "COc1cc2c(c(OC)c1OC)-c1ccc(OC)c(=O)cc1[C@@H](NC(C)=O)CC2", "note": "[colchicine, Colchicine, reference compound]", "values": [{"measurement": "IC50", "value": 24, "unit": "nM"}]}]}
